Measured values published in publication doi:10.1101/2020.11.11.378323.
No constants are given. Whether binding was seen depends on the method and setting. Some entries that bind do so weakly or less than the wild type. One block for each molecule: values may come before it.

By UniProt entry, the sequences of proteins in these tests, tags left out.
UniProt P23803, whole entry: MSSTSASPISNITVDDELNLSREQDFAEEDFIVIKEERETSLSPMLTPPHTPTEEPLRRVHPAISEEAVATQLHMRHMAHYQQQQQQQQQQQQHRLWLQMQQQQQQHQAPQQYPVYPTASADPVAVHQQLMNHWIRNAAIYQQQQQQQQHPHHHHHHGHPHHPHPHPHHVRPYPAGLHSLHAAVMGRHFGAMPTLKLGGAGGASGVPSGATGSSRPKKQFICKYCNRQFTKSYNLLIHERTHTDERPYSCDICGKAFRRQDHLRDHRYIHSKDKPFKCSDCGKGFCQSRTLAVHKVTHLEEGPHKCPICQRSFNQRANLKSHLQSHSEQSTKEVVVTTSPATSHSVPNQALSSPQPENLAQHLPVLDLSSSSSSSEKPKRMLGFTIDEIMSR
UniProt P19538, whole entry: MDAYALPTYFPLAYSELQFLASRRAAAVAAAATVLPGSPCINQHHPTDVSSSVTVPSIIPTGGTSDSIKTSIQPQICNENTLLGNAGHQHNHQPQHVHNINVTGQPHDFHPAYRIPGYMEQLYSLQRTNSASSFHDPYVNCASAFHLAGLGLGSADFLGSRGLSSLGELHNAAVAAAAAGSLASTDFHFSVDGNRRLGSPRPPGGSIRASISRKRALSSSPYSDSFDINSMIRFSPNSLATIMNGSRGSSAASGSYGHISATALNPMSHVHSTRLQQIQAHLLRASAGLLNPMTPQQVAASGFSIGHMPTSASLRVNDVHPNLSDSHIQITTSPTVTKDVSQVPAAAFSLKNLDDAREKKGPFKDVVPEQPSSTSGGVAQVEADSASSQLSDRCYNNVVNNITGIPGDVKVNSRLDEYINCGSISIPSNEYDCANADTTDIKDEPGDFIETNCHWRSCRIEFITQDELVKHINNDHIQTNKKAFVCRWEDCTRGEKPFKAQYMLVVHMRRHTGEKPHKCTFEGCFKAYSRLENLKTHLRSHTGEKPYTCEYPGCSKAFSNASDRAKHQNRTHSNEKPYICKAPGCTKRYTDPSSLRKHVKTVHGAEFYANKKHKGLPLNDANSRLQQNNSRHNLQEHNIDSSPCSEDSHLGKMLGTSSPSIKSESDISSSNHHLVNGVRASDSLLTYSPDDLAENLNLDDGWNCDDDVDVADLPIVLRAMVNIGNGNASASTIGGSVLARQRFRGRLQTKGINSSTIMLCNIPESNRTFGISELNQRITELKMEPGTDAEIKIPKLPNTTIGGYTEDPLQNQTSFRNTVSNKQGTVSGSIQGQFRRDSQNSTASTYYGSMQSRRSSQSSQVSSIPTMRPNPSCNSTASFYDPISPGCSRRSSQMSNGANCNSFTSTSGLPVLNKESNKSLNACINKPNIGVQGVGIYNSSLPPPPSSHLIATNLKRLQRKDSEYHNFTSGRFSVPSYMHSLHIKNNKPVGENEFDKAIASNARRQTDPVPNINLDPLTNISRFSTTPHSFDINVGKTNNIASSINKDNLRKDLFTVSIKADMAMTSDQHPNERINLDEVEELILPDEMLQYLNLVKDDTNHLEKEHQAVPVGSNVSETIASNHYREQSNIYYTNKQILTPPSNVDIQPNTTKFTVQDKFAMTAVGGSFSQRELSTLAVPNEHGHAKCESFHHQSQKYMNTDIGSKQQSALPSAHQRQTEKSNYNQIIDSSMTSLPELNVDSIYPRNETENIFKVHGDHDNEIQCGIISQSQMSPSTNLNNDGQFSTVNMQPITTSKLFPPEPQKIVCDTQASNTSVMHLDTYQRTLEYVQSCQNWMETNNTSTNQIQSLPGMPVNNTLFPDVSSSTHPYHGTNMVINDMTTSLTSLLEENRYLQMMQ
UniProt P07247, whole entry: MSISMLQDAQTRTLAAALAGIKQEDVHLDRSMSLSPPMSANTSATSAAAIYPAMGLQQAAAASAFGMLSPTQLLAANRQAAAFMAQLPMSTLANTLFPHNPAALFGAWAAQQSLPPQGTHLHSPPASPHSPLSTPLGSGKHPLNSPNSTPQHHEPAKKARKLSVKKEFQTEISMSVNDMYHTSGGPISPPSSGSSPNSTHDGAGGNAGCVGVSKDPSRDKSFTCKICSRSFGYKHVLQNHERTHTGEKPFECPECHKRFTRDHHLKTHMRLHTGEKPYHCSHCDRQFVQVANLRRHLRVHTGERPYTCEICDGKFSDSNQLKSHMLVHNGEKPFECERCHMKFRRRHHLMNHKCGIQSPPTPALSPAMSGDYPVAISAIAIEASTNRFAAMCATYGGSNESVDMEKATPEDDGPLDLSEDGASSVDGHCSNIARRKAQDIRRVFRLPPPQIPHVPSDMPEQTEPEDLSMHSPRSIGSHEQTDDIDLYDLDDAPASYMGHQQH

Experiments:
Test in all cases: two-hybrid
[1] = biological target: T1, 178-aa N-terminal region of MSL1 (Drosophila) (UniProt P50535)
T1 sequence: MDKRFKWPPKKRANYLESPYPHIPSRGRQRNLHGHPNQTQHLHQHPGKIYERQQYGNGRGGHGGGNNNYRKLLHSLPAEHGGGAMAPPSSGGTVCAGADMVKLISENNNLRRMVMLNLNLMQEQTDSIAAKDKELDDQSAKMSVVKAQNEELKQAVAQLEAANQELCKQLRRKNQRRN

[2] = biological target: T2, male-specific lethal (MSL)1 (Drosophila) (UniProt P50535)
T2 sequence: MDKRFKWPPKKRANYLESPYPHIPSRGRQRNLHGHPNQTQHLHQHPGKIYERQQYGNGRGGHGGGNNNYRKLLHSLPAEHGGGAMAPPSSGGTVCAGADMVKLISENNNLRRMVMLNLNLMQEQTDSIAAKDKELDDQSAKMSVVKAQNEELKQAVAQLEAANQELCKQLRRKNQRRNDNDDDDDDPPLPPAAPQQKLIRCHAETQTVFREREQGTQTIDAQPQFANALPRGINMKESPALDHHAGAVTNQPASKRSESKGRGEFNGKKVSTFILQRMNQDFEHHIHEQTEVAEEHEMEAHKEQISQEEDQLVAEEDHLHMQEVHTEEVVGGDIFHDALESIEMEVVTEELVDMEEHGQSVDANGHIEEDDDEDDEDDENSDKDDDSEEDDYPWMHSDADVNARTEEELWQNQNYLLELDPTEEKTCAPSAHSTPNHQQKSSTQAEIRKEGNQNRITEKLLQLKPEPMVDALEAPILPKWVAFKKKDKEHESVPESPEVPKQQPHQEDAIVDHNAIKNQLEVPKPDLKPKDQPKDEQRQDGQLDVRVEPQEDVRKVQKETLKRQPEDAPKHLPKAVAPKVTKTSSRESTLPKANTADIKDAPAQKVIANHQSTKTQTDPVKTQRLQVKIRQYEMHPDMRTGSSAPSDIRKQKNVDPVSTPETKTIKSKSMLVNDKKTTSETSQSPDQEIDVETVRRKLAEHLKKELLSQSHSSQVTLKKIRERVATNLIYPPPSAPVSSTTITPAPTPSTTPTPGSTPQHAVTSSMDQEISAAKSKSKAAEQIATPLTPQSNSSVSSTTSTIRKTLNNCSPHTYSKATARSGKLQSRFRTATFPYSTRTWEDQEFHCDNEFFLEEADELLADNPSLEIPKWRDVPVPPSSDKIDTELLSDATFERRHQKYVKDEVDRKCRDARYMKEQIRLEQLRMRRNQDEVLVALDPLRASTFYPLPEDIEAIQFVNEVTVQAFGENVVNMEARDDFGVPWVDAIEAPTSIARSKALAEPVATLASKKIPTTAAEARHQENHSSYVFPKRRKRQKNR

[3] = biological target: T3, male-specific lethal (MSL)2 (Drosophila) (UniProt P50534)
T3 sequence: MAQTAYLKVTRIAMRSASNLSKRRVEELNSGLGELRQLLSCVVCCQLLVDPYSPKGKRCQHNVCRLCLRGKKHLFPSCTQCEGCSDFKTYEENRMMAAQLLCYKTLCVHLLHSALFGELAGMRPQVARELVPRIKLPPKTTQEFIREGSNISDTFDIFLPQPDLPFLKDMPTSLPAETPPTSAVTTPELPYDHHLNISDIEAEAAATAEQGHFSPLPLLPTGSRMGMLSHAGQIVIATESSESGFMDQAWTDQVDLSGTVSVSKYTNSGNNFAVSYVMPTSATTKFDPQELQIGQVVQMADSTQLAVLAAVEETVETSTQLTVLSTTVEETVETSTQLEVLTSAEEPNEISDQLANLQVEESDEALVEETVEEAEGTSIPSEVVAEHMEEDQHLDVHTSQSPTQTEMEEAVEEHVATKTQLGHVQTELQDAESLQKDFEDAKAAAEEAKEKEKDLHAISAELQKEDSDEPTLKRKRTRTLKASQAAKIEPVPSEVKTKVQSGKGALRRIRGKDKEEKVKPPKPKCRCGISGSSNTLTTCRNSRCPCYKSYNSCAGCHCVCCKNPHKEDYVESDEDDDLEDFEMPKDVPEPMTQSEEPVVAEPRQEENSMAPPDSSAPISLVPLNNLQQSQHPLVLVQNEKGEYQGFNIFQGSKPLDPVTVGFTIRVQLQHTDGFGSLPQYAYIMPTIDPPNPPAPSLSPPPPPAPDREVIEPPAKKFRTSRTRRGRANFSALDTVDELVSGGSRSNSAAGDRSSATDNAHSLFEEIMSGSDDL

binding [1]: binds
Molecule: Odd (from UniProt P23803 1-392)
binding [2]: binds

binding [1]: binds
Molecule: Ci (from UniProt P19538 1-1397)
binding [2]: binds

binding [1]: binds
Molecule: Kruppel (from UniProt P07247 1-502)
binding [2]: binds

B1: Snail (protein, UniProt P08044 1-390)
chain: MAANYKSCPLKKRPIVFVEERLPQTEALALTKDSQFAQDQPQDLSLKRGRDEETQDYQQPEPKRDYVLNLSKTPERNSSSSSNSCLLSPPVEAQDYLPTEIHMRGLTAGTTGYTTATPTTINPFQSAFVMAAGCNPISALWSSYQPHLAAFPSPASSMASPQSVYSYQQMTPPSSPGSDLETGSEPEDLSVRNDIPLPALFHLFDEAKSSSSGASVSSSSGYSYTPAMSASSASVAANHAKNYRFKCDECQKMYSTSMGLSKHRQFHCPAAECNQEKKTHSCEECGKLYTTIGALKMHIRTHTLPCKCPICGKAFSRPWLLQGHIRTHTGEKPFQCPDCPRSFADRSNLRAHQQTHVDVKKYACQVCHKSFSRMSLLNKHSSSNCTITIA
binding [2]: binds

B2: chromatin-linked adaptor for MSL proteins (protein, UniProt Q9V9N4 1-561)
chain: MEDLTKNIIFTNAINGQPATIQYQTADGTILKQPKIEGQKTEQQPTFYYTTNGNGGTVNLAQLATTDDNKTCYIAQPVGGYNYALVNGMPLNQGAALGIATVDAQGRIQIVNQNKPIAANTISNISFKCDVCSDMFPHLALLNAHKRMHTDGEQQQQQQHNAQAGGDSIAVVSAQGLVQAQNIIGNGQMGQIQIVSSDTLEPVQQSVMQQQQHESKASKCINCGSSMLQQSKRKGPKQVRCESCMQAEQTAQQQQQLFVAQDGQMAHPVQIISTTPQAQAQLQQIVAAQTGGTTPKREASSGSGHHPVKKRNSQQMTKCQKCNGSGVVLVGQHSHASHSGVGGSVKQSVTVKTENPSKPFSCNICGGLFSRYSSLWSHKKLHSGEKNYKCSICGLAFAKAVYLKNHARIHTGEKPYKCQTCGMQFSQSPHLKNHERTHSGERPYVCGVCDKGFARHATLWNHRRIHTGEKPYKCEICGSAFSQAAHLKNHAKVHSGEKPYKCEICSAAFADRFALKRHRGIHQKYGQTAPRQTSSDGMIVHKQEIPDMEDEAQQEVIIGGL
binding [3]: binds
